Experimental data: PubChem BioAssay AID1259424 (University of Nebraska Medical Center, 2018)
The deposit covers about 14,000 reagents; this is an unselected part. 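Higher correlation or smaller distance means closer resemblance to KSR1 loss; control wells, including KSR1 knockdowns, recur on many plates.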 A reagent listed more than once was tested more than once; the source does not tell the runs apart. Not stated in the record: the time to read-out.

- Aim: 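Seek colon cancer survival genes behaving like KSR1, using a six-gene signature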 (primary screen)
- Cells: human HCT116 colon cancer cells
- Reagent: siRNA pool against human genes, 50 nM
- Measured: 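Log2 levels of six mRNAs (branched-DNA multiplex), adjusted by two reference genes and the non-targeting median, then scored against the average KSR1 knockdown pattern as Pearson r and euclidean distance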
- Direction: mean correlation with KSR1 profile and KSR1 correlation: higher = expression change more like KSR1 knockdown; mean distance from KSR1 profile: higher = expression change less like KSR1 knockdown

| mean correlation with KSR1 profile | mean distance from KSR1 profile | KSR1 correlation, replicate 1 | KSR1 correlation, replicate 2 | KSR1 correlation, replicate 3 | target |
| --- | --- | --- | --- | --- | --- |
| 0.205 | 1.71 | -0.0625 | 0.236 | 0.124 | DAPP1 |
| -0.344 | 2 | -0.61 | -0.257 | -0.113 | CRLF2 |
| -0.275 | 2.39 | -0.159 | -0.402 | -0.074 | ACTC1 |
| 0.414 | 1.18 | 0.513 | 0.454 | 0.361 | CR1 |
| 0.207 | 1.18 | 0.0878 | 0.461 | -0.503 | EGFR |
| -0.301 | 3.61 | -0.413 | -0.49 | 0.0592 | CDY1 |
| 0.181 | 2.23 | 0.124 | 0.174 | 0.106 | ZBTB39 |
| -0.338 | 1.65 | -0.682 | -0.401 | 0.0586 | MT3 |
| 0.648 | 1.01 | 0.445 | 0.691 | 0.565 | TBX22 |
| 0.682 | 1.4 | 0.775 | 0.649 | 0.726 | BCL6 |
| -0.203 | 2.1 | 0.185 | -0.353 | -0.294 | VPS37C |
| 0.184 | 2.58 | 0.486 | 0.455 | -0.322 | ALAS2 |
| 0.767 | 0.981 | 0.833 | 0.411 | 0.246 | ROCK1 |
| -0.181 | 1.55 | -0.102 | -0.178 | 0.0161 | TPCN1 |
| 0.452 | 1.19 | 0.349 | 0.513 | -0.0217 | CKB |
| 0.385 | 2.72 | 0.543 | 0.434 | 0.294 | BCL7B |
| 0.443 | 1.57 | 0.368 | 0.341 | 0.557 | TRAF3 |
| -0.173 | 2.32 | -0.0192 | -0.282 | -0.449 | EPHA7 |
| 0.599 | 1.11 | 0.624 | 0.514 | -0.0406 | DUSP5 |
| 0.0701 | 1.89 | -0.135 | -0.0967 | 0.336 | EIF1AD |
| 0.339 | 2.42 | 0.412 | 0.342 | -0.286 | RUBCNL |
| -0.323 | 5.12 | -0.0745 | -0.298 | -0.404 | RASIP1 |
| -0.563 | 1.69 | -0.185 | -0.956 | -0.233 | UMOD |
| 0.287 | 2.04 | 0.198 | 0.297 | 0.427 | DLGAP3 |
| -0.176 | 1.67 | -0.336 | -0.308 | 0.022 | MLLT3 |
| 0.547 | 3.06 | 0.657 | 0.609 | 0.195 | GRK6 |
| 0.512 | 1.81 | 0.542 | 0.638 | 0.358 | GRK6 |
| -0.358 | 3.23 | -0.458 | -0.437 | -0.347 | LYNX1 |
| -0.695 | 3.97 | -0.66 | -0.737 | -0.624 | COPS6 |
| -0.303 | 2.4 | -0.154 | -0.324 | -0.3 | LINC00472 |
| -0.191 | 1.84 | -0.125 | -0.178 | -0.0892 | FXR1 |
| 0.243 | 3.9 | 0.473 | 0.101 | 0.206 | PRSS21 |
| -0.412 | 3 | -0.507 | -0.491 | -0.215 | MYH15 |
| -0.347 | 3.84 | -0.478 | -0.403 | -0.311 | SMARCB1 |
| -0.318 | 2.04 | -0.387 | -0.466 | -0.615 | RMC1 |
| -0.365 | 2.03 | -0.212 | -0.319 | -0.449 | PHIP |
| -0.54 | 2.59 | -0.558 | -0.418 | -0.432 | SAXO6 |
| -0.839 | 2.33 | -0.753 | -0.846 | -0.79 | RBM10 |
| 0.771 | 1.89 | 0.709 | 0.879 | 0.245 | CEP89 |
| 0.128 | 2.95 | 0.1 | 0.0576 | -0.163 | CDK2 |
| -0.418 | 2.15 | -0.299 | -0.236 | -0.461 | DNAJC22 |
| -0.812 | 3.23 | -0.887 | -0.868 | -0.862 | EIF3K |
| 0.266 | 2.47 | 0.0382 | 0.427 | 0.0425 | KLHL14 |
| 0.325 | 2.62 | 0.392 | 0.344 | 0.185 | AIMP1 |
| 0.78 | 0.821 | 0.906 | 0.58 | 0.242 | CHRNA5 |
| 0.136 | 1.87 | 0.242 | -0.00321 | -0.127 | SMAD9 |
| -0.103 | 2.63 | 0.0646 | -0.216 | -0.354 | TXN2 |
| -0.633 | 2.3 | -0.496 | -0.791 | -0.709 | BCL2L11 |
| 0.00175 | 2.94 | 0.151 | -0.18 | -0.0878 | ADARB2 |
| -0.388 | 2.24 | -0.315 | -0.363 | -0.555 | MRPS31 |

5 entries already listed, sorted by “KSR1 correlation, replicate 1”, high to low.
| mean correlation with KSR1 profile | mean distance from KSR1 profile | KSR1 correlation, replicate 1 | KSR1 correlation, replicate 2 | KSR1 correlation, replicate 3 | target |
| --- | --- | --- | --- | --- | --- |
| 0.767 | 0.981 | 0.833 | 0.411 | 0.246 | ROCK1 |
| 0.682 | 1.4 | 0.775 | 0.649 | 0.726 | BCL6 |
| 0.184 | 2.58 | 0.486 | 0.455 | -0.322 | ALAS2 |
| -0.203 | 2.1 | 0.185 | -0.353 | -0.294 | VPS37C |
| -0.181 | 1.55 | -0.102 | -0.178 | 0.0161 | TPCN1 |
